According to publication PMC10202959:
These are yes or no findings as the source states them, for the method shown. Binding can be weak; no strength is given. Sequences can lack the tags named with a protein.

Legend:
human fibrinogen (human) = assay: ELISA; plates coated with 100 nM ECM protein in PBS; PDGF-BB or IL-1Ra variants at increasing concentrations in PBS-T with 0.1% BSA, 1 h at room temperature; detected with biotinylated antibodies; KD from a one site specific binding model; both purified
[1] = target: human plasma fibronectin (human); assay: as above

B1: interleukin-1 receptor antagonist (IL-1Ra), wild type (ligand, UniProt P25085 27-178)
chain: RPSGKRPCKMQAFRIWDTNQKTFYLRNNQLIAGYLQGPNIKLEEKIDMVPIDLHSVFLGIHGGKLCLSCAKSGDDIKLQLEEVNITDLSKNKEEDKRFTFIRSEKGPTTSFESAACPGWFLCTTLEADRPVSLTNTPEEPLIVTKFYFQEDQ
With B1 the binding (human fibrinogen (human)) was “binds” and the binding [1] was “binds”.
